# Measured values as given in the supplement of paper PMC8728848.
# The other results are listed elsewhere or left out.
# B1: Gs78B-bfa-542-29-542 (Bacteroides fragilis) (protein)
# chain: SEDINRNPLLPTKEDEKMDGVIYGAYLPNLEKSVIPIGTASESTEPVNRYQIGVNLAGDAWAGYMSPRDNKFNGSKNFTNYFMYENWVNYVYSFMVTDVYSPWMQIKRISQDEGTRNDEIYALAQIIKIAALHRTTDMFGPIPYSQVGKGSFKVAYDSQESVYRSFLKELEEAVQTLDDYSNKSKEVLPAFDIVYNGDVNKWMRFANSLMLRLAIRVRFADAGLAKEYAEKAVKHPAGLINSKELAAQMGKGAGLQMKNPLKVINEEYNDTRMGATIYSYLAGYNDARAAVYFVKNNGFKAVRCGIAKSGDAYNGFTRPNVHEDDPLYWMKASEVCFLKAEGALAGFDMGGSAGDFYNAGIRMSFSENGLDNSSAETYLKDSTRKPANYTDTSNGELSANAPSSITIRWENGATEEEKLERIITQKYLAIFPNGQEAWTEWRRTGYPRQIVVAENKTNSAVLIGNGYDLGGVRRLPYPRTEYEQNGENLHNAISQYLGGVDNAATKVWWDKKSK
# Tests used:
# Experiment in all cases: glycan array binding signal (z-score within array); higher = stronger binding
# Conditions in all cases: glycan notation: IUPAC condensed, linker removed
# [1] = target: Gal(a1-3)[Gal(a1-4)]Gal(b1-4)GlcNAc
# Procedure, shortened: (§1)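 The binding signal is a Z-score computed within each array and averaged over linkers. Arrays of the same protein sequence at different concentrations or buffers were also averaged together. Data originate from 3228 arrays in the Consortium for Functional Glycomics database, kept only where the protein sequence was available.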
# [2] = target: Gal(a1-4)Gal(b1-3)GlcNAc(b1-2)Man(a1-3)[Gal(a1-4)Gal(b1-3)GlcNAc(b1-2)Man(a1-6)]Man(b1-4)GlcNAc(b1-4)GlcNAc
# Procedure, shortened: as §1
# [3] = target: Gal(a1-4)Gal(b1-4)Glc
# Procedure, shortened: as §1
# [4] = target: Gal(a1-4)Gal(b1-4)GlcNAc
# Procedure, shortened: as §1
# [5] = target: Gal(a1-4)Gal(b1-4)GlcNAc(b1-2)Man(a1-3)[Gal(a1-4)Gal(b1-4)GlcNAc(b1-2)Man(a1-6)]Man(b1-4)GlcNAc(b1-4)GlcNAc
# Procedure, shortened: as §1
# [6] = target: Gal(a1-4)Gal(b1-4)GlcNAc(b1-3)Gal(b1-4)Glc
# Procedure, shortened: as §1
# [7] = target: Gal(a1-4)GlcNAc
# Procedure, shortened: as §1
# [8] = target: Gal(a1-6)Glc
# Procedure, shortened: as §1
# [9] = target: Gal(b1-2)Gal
# Procedure, shortened: as §1
# [10] = target: Gal(b1-3)Gal
# Procedure, shortened: as §1
# [11] = target: Gal(b1-3)Gal(b1-4)GlcNAc
# Procedure, shortened: as §1
# [12] = target: Gal(b1-3)GalNAc
# Procedure, shortened: as §1
# [13] = target: Gal(b1-3)GalNAc(a1-3)[Fuc(a1-2)]Gal(b1-4)Glc
# Procedure, shortened: as §1
# [14] = target: Gal(b1-3)GalNAc(a1-3)[Fuc(a1-2)]Gal(b1-4)GlcNAc
# Procedure, shortened: as §1
# [15] = target: Gal(b1-3)GalNAc(b1-3)Gal
# Procedure, shortened: as §1
# [16] = target: Gal(b1-3)GalNAc(b1-3)Gal(a1-4)Gal(b1-4)Glc
# Procedure, shortened: as §1
# [17] = target: Gal(b1-3)GalNAc(b1-4)Gal(b1-4)Glc
# Procedure, shortened: as §1
# [18] = target: Gal(b1-3)GalNAc(b1-4)[Neu5Ac(a2-3)]Gal(b1-4)Glc
# Procedure, shortened: as §1
# [19] = target: Gal(b1-3)GlcNAc
# Procedure, shortened: as §1
# [20] = target: Gal(b1-3)GlcNAc(a1-3)Gal(b1-4)GlcNAc
# Procedure, shortened: as §1
# [21] = target: Gal(b1-3)GlcNAc(a1-6)Gal(b1-4)GlcNAc
# Procedure, shortened: as §1
# [22] = target: Gal(b1-3)GlcNAc(b1-2)Man
# Procedure, shortened: as §1
# [23] = target: Gal(b1-3)GlcNAc(b1-2)Man(a1-3)[Gal(b1-3)GlcNAc(b1-2)Man(a1-6)]Man(b1-4)GlcNAc(b1-4)GlcNAc
# Procedure, shortened: as §1
# [24] = target: Gal(b1-3)GlcNAc(b1-2)Man(a1-3)[Gal(b1-3)GlcNAc(b1-2)Man(a1-6)]Man(b1-4)GlcNAc(b1-4)[Fuc(a1-6)]GlcNAc
# Procedure, shortened: as §1
# [25] = target: Gal(b1-3)GlcNAc(b1-2)Man(a1-3)[GlcNAc(b1-4)][Gal(b1-3)GlcNAc(b1-2)Man(a1-6)]Man(b1-4)GlcNAc(b1-4)GlcNAc
# Procedure, shortened: as §1
# [26] = target: Gal(b1-3)GlcNAc(b1-2)[Gal(b1-3)GlcNAc(b1-6)]Man(a1-6)[Gal(b1-3)GlcNAc(b1-2)Man(a1-3)]Man(b1-4)GlcNAc(b1-4)GlcNAc
# Procedure, shortened: as §1
# [27] = target: Gal(b1-3)GlcNAc(b1-3)Gal(b1-3)GlcNAc
# Procedure, shortened: as §1
# [28] = target: Gal(b1-3)GlcNAc(b1-3)Gal(b1-4)Glc
# Procedure, shortened: as §1
# [29] = target: Gal(b1-3)GlcNAc(b1-3)Gal(b1-4)GlcNAc
# Procedure, shortened: as §1
# [30] = target: Gal(b1-3)GlcNAc(b1-3)Gal(b1-4)GlcNAc(b1-2)Man(a1-3)[Gal(b1-3)GlcNAc(b1-3)Gal(b1-4)GlcNAc(b1-2)Man(a1-6)]Man(b1-4)GlcNAc(b1-4)GlcNAc
# Procedure, shortened: as §1
# [31] = target: Gal(b1-3)GlcNAc(b1-3)Gal(b1-4)GlcNAc(b1-2)[Gal(b1-3)GlcNAc(b1-3)Gal(b1-4)GlcNAc(b1-6)]Man(a1-6)[Gal(b1-3)GlcNAc(b1-3)Gal(b1-4)GlcNAc(b1-2)Man(a1-3)]Man(b1-4)GlcNAc(b1-4)[Fuc(a1-6)]GlcNAc
# Procedure, shortened: as §1
# [32] = target: Gal(b1-3)GlcNAc(b1-3)Gal(b1-4)GlcNAc(b1-3)Gal(b1-4)GlcNAc(b1-2)[Gal(b1-3)GlcNAc(b1-3)Gal(b1-4)GlcNAc(b1-3)Gal(b1-4)GlcNAc(b1-6)]Man(a1-6)[Gal(b1-3)GlcNAc(b1-3)Gal(b1-4)GlcNAc(b1-3)Gal(b1-4)GlcNAc(b1-2)Man(a1-3)]Man(b1-4)GlcNAc(b1-4)[Fuc(a1-6)]GlcNAc
# Procedure, shortened: as §1
# [33] = target: Gal(b1-3)GlcNAc(b1-3)Gal(b1-4)GlcNAc(b1-6)[Gal(b1-3)GlcNAc(b1-3)]Gal(b1-4)Glc
# Procedure, shortened: as §1
# [34] = target: Gal(b1-3)GlcNAc(b1-3)Gal(b1-4)[Fuc(a1-3)]GlcNAc
# Procedure, shortened: as §1
# [35] = target: Gal(b1-3)GlcNAc(b1-3)Gal(b1-4)[Fuc(a1-3)]GlcNAc(b1-6)[Gal(b1-3)GlcNAc(b1-3)]Gal(b1-4)Glc
# Procedure, shortened: as §1
# [36] = target: Gal(b1-3)GlcNAc(b1-3)GalNAc
# Procedure, shortened: as §1
# [37] = target: Gal(b1-3)GlcNAc(b1-6)Gal(b1-4)GlcNAc
# Procedure, shortened: as §1
# [38] = target: Gal(b1-3)GlcNAc(b1-6)GalNAc
# Procedure, shortened: as §1
binder,measurement,setting,value
B1,glycan array binding signal (z-score),[1],0.701
same,glycan array binding signal (z-score),[2],1.76
same,glycan array binding signal (z-score),[3],2.76
same,glycan array binding signal (z-score),[4],0.632
same,glycan array binding signal (z-score),[5],1.51
same,glycan array binding signal (z-score),[6],-0.65
same,glycan array binding signal (z-score),[7],0.473
same,glycan array binding signal (z-score),[8],-0.763
same,glycan array binding signal (z-score),[9],-0.774
same,glycan array binding signal (z-score),[10],0.161
same,glycan array binding signal (z-score),[11],1.69
same,glycan array binding signal (z-score),[12],-0.151
same,glycan array binding signal (z-score),[13],0.1
same,glycan array binding signal (z-score),[14],1.54
same,glycan array binding signal (z-score),[15],-0.712
same,glycan array binding signal (z-score),[16],0.448
same,glycan array binding signal (z-score),[17],-0.176
same,glycan array binding signal (z-score),[18],1.7
same,glycan array binding signal (z-score),[19],-0.119
same,glycan array binding signal (z-score),[20],-0.178
same,glycan array binding signal (z-score),[21],1.13
same,glycan array binding signal (z-score),[22],1.37
same,glycan array binding signal (z-score),[23],-0.165
same,glycan array binding signal (z-score),[24],1.53
same,glycan array binding signal (z-score),[25],1.85
same,glycan array binding signal (z-score),[26],-0.471
same,glycan array binding signal (z-score),[27],1.03
same,glycan array binding signal (z-score),[28],-0.698
same,glycan array binding signal (z-score),[29],-0.266
same,glycan array binding signal (z-score),[30],-0.404
same,glycan array binding signal (z-score),[31],0.613
same,glycan array binding signal (z-score),[32],0.392
same,glycan array binding signal (z-score),[33],-0.123
same,glycan array binding signal (z-score),[34],0.623
same,glycan array binding signal (z-score),[35],-0.25
same,glycan array binding signal (z-score),[36],1.2
same,glycan array binding signal (z-score),[37],-0.54
same,glycan array binding signal (z-score),[38],-0.286

# An excerpt of the results above, for reference:
binder,measurement,setting,value
B1,glycan array binding signal (z-score),[1],0.701
same,glycan array binding signal (z-score),[2],1.76
same,glycan array binding signal (z-score),[3],2.76
